Test results reported in patent publication US6368552B1, “Water treating agent and water treating method” (Kurita Water Industries Ltd., priority 1999, dated 2002).

Assay: Autoclave test of transference of the chemical from liquid water phase to steam phase at 200° C. (gas chromatography)
Format: physicochemical
Conditions: pH 11.5
Protocol: Each 50 ml of samples were taken from the steam phase and from the liquid phase directly after the temperature had reached at 200° C., which were analyzed for the concentration of the chemical on a gas chromatography. The ratio of the concentration of chemical in the steam phase versus the concentration of chemical in the liquid phase was calculated.

CCCCCCCC1CCC(=O)O1 (centres unmarked) [Example 3, γ-undecalactone]
Conc. of chemical in steam: 34 µg/mL | Conc. of chemical in water: 193 µg/mL
